Experimental data reported in US10365262B2, “Method of monitoring a parameter of a hydrocarbon well, pipeline or formation” (JOHNSON MATTHEY PUBLIC LIMITED COMPANY, priority 2015, dated 2019).

Experiment: Detectability (limit of detection) by GC-MS after solid phase extraction and derivatisation
Conditions: GC-MS (NCI, SIM); tracers diluted to 25-40 ppb in deionised water; calculated from standard error; lower is better
Description: Example tracers Ex 1 to Ex 3 were analysed to determine their detectability using GC-MS. The detectability was determined by diluting the tracer using acetonitrile to levels of 10 ppm and analysing it on a GC-MS to determine the retention time. The tracers were then further diluted to 25, 30, 35 and 40 ppb using deionised water. The tracers were then extracted using solid phase extraction and analysed by GC-MS. Prior to extraction the solution is acidified to convert all of the tracer to the acid form. In this way either the anion (for example, the dissolved salt) or the acid can prepared for analysis. For the solid phase extraction 25 ml of the tracer solution with 0.5 ml of internal standard of 2,6-bis(trifluoroethyl)-benzoic acid at a concentration of 1.05 ppm and 0.25 ml of concentrated HCl were run on a solid phase extraction instrument. This technique concentrates the solution 20-fold, e.g. to 40 to 800 ppb. After this technique, 1 ml of sample was added to a GC vial, as well as 0.5 ml of 4% derivatising agent 2,3,4,5,6-pentafluorobenzyl bromide made up with acetone. The sample was heated at 95° C. for 30 minutes and then run on the GC-MS with the following parameters:
Since the purpose of the study was to compare performance between the tracers, the LoD was calculated in arbitrary units that permit direct comparison between the examples. The LoD was calculated based on the standard error of the results obtained, which is used to determine the level at which the tracer could be reliably detected. The results are shown in table 1 along with data for prior art comparative tracers PA 1 to PA 2.

Compound	LoD [arbitrary units]
O=C(O)c1cccc(OC(F)F)c1 [Ex 1, 3-(Difluoromethoxy)benzoic acid]	0.0825
COc1c(F)cc(C(=O)O)cc1F [Ex 2, 3,5-Difluoro-4-methoxybenzoic acid]	0.0787
COc1c(F)ccc(C(=O)O)c1F [Ex 3, 2,4-Difluoro-3-methoxybenzoic acid]	0.1000
O=C(O)c1ccccc1F [PA 1, 2-Fluorobenzoic Acid, reference compound]	0.0577
O=C(O)c1c(F)cccc1F [PA 2, 2,6-Difluorobenzoic Acid, reference compound]	0.2948
